The values below are quoted from earlier work in PMC10343800, “A Novel LSTM-Based Machine Learning Model for Predicting the Activity of Food Protein-Derived Antihypertensive Peptides” (Molecules, 2023).

Sequences of proteins named here, by UniProt entry; tags and fusion partners are left off. Residues count along the entry.
UniProt P12821, 30-1306 limits assumed: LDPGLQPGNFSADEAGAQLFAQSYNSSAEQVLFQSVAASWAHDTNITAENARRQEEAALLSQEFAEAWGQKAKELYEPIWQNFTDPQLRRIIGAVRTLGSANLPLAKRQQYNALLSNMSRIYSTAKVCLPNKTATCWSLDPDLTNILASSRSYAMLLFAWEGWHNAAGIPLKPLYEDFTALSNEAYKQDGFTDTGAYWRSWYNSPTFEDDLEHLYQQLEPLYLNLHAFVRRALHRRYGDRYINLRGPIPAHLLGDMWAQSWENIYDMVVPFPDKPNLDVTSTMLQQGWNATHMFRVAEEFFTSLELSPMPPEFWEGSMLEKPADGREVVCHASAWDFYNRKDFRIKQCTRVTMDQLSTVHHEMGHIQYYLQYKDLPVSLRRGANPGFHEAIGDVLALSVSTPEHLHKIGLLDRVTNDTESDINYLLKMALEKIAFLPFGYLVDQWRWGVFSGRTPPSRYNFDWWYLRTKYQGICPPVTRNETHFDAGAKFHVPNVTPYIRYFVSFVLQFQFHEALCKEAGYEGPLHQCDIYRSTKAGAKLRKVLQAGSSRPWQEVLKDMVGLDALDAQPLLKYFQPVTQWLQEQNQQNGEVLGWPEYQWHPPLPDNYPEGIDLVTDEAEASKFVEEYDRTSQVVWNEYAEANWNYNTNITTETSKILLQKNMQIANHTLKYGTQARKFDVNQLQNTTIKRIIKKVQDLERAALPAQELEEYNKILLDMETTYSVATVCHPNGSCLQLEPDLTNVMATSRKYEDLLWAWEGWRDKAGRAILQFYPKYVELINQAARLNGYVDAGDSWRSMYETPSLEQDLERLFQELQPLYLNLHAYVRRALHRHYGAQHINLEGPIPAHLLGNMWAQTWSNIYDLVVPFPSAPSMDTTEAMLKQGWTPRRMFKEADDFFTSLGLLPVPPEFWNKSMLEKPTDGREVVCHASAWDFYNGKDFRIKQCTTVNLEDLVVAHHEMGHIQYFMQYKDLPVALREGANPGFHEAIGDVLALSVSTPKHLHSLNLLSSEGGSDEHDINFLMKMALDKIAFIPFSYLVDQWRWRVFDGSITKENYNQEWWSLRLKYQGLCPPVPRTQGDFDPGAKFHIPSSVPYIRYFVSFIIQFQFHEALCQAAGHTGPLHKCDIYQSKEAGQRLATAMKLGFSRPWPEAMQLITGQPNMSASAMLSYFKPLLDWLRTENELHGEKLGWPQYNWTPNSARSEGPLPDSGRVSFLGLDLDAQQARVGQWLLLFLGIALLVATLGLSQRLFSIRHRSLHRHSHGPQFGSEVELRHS

Structures were worked out from names or drawings and are uncertain.

This data set concerns the target ACE (Homo sapiens, UniProt P12821). To be noted: read-out: Reported IC50; in vitro ACE inhibition; cited from earlier work.

One may read the IC50 as the concentration at which inhibition is half-maximal. As for `CC[C@H](C)[C@H](N)C(=O)N[C@H](C(=O)N[C@@H](Cc1ccc(O)cc1)C(=O)O)C(C)C`, the IC50 is 45.8 µM.
Turning to `CC[C@H](C)[C@H](N)C(=O)N[C@@H](CCC(N)=O)C(=O)N[C@@H](Cc1c[nH]c2ccccc12)C(=O)O`, the IC50 is 1.56 µM.
Consider `NC(=O)C[C@H](N)C(=O)N[C@@H](Cc1ccccc1)C(=O)O`, for which the IC50 is 46.3 µM.
As for `CC[C@H](C)[C@H](N)C(=O)N[C@@H](CCCNC(=N)N)C(=O)N[C@@H](Cc1c[nH]c2ccccc12)C(=O)O`, the IC50 was 0.61 µM.
As to `CC(C)C[C@H](N)C(=O)N[C@@H](CCCCN)C(=O)N[C@@H](Cc1ccc(O)cc1)C(=O)O`, the IC50 was 0.78 µM.
Regarding `CC(C)C[C@H](N)C(=O)N[C@@H](CCC(N)=O)C(=O)N1CCC[C@H]1C(=O)O`, the IC50 was 1.04 µM.
With `CC(C)C[C@H](N)C(=O)N[C@@H](C)C(=O)N[C@@H](CCCCN)C(=O)O`, the IC50 was 48 µM.
